Results are given in words; binding and its absence hold for the method and conditions named. Binding seen in cells or lysates may run through a third protein. Binding calls can cover weak binding; strength is not graded here.
What was measured:
[1] = molecular target: Flag-AIF T281A (human) (UniProt O95831); experiment: co-IP; lysates of cells with Flag-AIF WT or T281A immunoprecipitated with anti-Flag antibody, immunoblotted with indicated antibodies
[2] = molecular target: GST-AIF (WT) (human) (UniProt O95831); experiment: pull-down; GST pull-down in vitro with GST-AIF or GST-truncated AIF as bait; method as in ref. 22
[3] = molecular target: Apoptosis-inducing factor (AIF), endogenous (human (endogenous in BT474 and T47D)) (UniProt O95831); experiment: co-IP; endogenous proteins; BT474 and T47D lysates immunoprecipitated with anti-PAK5, anti-AIF or IgG, western blot

Chains of the proteins cited; added tags and fusions are not shown. Lines headed by an entry give the natural chain unless they say otherwise; changes in a name come on top.
UniProt O95831: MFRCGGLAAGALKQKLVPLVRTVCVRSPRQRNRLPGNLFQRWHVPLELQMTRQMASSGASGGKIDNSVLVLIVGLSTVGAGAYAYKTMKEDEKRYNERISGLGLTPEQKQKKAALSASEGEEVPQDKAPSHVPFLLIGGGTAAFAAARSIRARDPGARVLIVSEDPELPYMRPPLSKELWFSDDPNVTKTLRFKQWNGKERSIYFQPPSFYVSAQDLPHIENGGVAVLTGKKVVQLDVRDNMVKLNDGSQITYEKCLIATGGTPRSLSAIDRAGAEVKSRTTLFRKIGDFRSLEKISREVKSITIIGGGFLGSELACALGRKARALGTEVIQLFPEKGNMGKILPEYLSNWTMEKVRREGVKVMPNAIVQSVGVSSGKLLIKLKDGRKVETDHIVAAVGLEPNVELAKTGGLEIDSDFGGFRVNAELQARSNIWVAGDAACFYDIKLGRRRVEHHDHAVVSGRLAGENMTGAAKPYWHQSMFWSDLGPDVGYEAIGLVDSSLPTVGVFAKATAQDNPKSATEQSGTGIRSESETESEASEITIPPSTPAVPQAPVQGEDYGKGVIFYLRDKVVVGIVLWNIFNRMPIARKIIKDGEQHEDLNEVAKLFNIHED
UniProt O00629: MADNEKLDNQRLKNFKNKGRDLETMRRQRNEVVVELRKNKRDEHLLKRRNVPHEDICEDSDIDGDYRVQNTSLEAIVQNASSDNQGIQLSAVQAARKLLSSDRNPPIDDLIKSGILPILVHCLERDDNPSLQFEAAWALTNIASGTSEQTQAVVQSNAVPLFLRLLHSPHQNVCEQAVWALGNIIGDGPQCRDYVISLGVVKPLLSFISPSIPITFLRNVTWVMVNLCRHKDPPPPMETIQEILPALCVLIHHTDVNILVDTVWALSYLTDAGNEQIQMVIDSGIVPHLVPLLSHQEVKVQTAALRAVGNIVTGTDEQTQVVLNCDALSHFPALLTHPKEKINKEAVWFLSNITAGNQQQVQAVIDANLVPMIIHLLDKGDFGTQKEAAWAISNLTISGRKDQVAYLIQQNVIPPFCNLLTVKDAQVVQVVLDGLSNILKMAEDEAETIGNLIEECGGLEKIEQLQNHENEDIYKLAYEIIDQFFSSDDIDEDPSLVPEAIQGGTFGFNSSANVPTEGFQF
UniProt Q14974: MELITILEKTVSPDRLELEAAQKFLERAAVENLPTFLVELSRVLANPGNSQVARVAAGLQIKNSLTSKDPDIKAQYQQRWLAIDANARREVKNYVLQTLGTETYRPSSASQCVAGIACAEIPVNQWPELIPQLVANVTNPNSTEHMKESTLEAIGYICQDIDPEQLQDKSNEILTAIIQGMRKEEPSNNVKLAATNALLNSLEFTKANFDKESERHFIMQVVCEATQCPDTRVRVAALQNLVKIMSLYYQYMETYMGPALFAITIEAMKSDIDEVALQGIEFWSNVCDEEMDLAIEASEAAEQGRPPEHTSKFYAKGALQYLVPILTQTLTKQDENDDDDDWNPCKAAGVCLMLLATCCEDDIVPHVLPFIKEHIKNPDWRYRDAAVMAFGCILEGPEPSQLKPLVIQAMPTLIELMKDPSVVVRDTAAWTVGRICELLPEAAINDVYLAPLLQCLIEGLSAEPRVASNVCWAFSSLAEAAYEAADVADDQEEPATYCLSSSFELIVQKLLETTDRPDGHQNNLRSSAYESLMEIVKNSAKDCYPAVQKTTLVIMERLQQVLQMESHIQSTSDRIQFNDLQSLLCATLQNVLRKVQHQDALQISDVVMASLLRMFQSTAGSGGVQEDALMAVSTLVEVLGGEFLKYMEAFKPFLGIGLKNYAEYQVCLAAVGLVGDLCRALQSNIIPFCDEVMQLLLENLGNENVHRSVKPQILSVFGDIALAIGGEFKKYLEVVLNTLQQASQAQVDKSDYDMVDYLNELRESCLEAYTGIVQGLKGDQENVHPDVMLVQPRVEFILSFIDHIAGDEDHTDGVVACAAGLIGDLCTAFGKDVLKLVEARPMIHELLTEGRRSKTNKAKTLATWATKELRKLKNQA
UniProt Q9P286: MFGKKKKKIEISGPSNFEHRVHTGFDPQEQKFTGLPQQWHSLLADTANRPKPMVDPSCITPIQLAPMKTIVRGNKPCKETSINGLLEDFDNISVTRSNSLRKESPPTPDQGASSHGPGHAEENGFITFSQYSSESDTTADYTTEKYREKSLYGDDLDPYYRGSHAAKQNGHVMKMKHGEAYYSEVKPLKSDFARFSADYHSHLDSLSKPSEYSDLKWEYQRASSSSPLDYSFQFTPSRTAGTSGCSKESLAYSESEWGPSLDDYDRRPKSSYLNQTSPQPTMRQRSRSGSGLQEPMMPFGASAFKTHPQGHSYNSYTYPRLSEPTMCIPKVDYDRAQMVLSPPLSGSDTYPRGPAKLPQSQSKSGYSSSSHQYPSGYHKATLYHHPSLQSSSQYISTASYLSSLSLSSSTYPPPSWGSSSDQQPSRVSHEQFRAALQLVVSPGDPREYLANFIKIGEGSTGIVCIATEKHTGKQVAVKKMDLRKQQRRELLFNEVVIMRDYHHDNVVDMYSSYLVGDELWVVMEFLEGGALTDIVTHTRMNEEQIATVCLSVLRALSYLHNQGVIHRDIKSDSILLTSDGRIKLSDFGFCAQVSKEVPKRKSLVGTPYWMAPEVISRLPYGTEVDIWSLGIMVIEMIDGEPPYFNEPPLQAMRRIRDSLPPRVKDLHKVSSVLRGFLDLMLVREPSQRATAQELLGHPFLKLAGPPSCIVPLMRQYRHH

| Substance | binding [1] | also measured |
| --- | --- | --- |
| GST-importin α3 (from UniProt O00629 1-521) | binds |  |
| GST-importin β1 (from UniProt Q14974 1-876) | binds |  |
| PAK5 used in the GST pull-down assays (from UniProt Q9P286 1-719) (enzyme) |  | binding [2]: binds |
| PAK5, overexpressed in cells (from UniProt Q9P286 1-719) (enzyme) | binds |  |
| p21 activated kinase 5 (PAK5), endogenous (from UniProt Q9P286 1-719) (enzyme) |  | binding [3]: binds |
